Source: US9435786B2, “Method for determining differentiation level of pluripotent stem cells” (HAMAMATSU PHOTONICS K.K., priority 2012, dated 2016)
At least one compound was matched to its structure with a doubt left.

Legend:
[1] = tested on: 253G1 iPS cell line derived from a human adult fibroblast; assay: Variogram analysis, MSHD standardized with mean height, per ROI (Example 3); assay type: cell-based
Text: The flatness may also be a value of MSHD in a predetermined horizontal distance. When a surface shape Z (x, y) is given and two points, A (x1, y1) and B (x2, y2), which are apart from each other at a Δr in the horizontal direction on the Z, are selected, the MSHD can be represented by formula (I). MSHD(Δr)=<(z(x1,y1)−z(x2,y2))^2> (I)
wherein z (x1, y1) is a height of a surface of the cell at A, z (x2, y2) is a height of a surface of the cell at B, and < > is an ensemble average. In addition, (x1, y1) and (x2, y2) are in any combination that satisfies formula (II). Δr=((x1−x2)^2+(y1−y2)^2)^1/2 (II)
Under the same condition as that of Example 2, three-dimensional data for the undifferentiated iPS cells and the iPS cells cultured by supplementing retinoic acid were obtained every 0.125 μm in the horizontal direction and every 0.32 μm in the vertical direction, and from the obtained data, tomogram images were created. […] Specifically, a value of MSHD when the Δr was within a range of 0.25 μm to 15 μm was calculated from formula (I) as described above, and standardized with a mean value of height of the surface of the cells.
Next, a value of MSHD when the Δr was […] was calculated and standardized with a mean value of height of the surface of the cells to calculate the flatness. […]

[2] = tested on: 253G1 iPS cell line derived from a human adult fibroblast; assay: Flatness of cell surface in a whole visual field, reflection quantitative phase microscope (Example 1); assay type: cell-based; conditions: iPS cells cultured by supplementing 12.5 μM retinoic acid; FIGS. 1b to 1d
Procedure: Onto an antireflectively coated glass bottom dish with 35 mm diameter, a 253G1 iPS cell line derived from a human adult fibroblast was seeded at 10 to 20 colonies/dish and cultured on feeder using a Primate ES Medium (manufactured by ReproCELL Incorporated, a commercial name: RCHEMD001) containing 4 ng/mL human basic FGF in the final concentration. The size of one colony was around 200 μn. As the feeder cells, mouse lung fibroblasts were used. The cells were cultured until the third day after the seeding. The medium was replaced once a day. […]
The shape of the cells was observed using a reflection quantitative phase microscope. […]
The bottom surface and surface shapes of the cell were extracted as follows. By using a reflection quantitative phase microscope, three-dimensional data for the cells in a 60 μm×80 μm visual field were obtained every 0.125 μm in the horizontal direction and every 0.32 μm in the vertical direction, and from the obtained data, tomogram images were created. […] From the obtained bottom surfaces and surface shapes, the height of the surface of the cells was measured. The flatness was calculated as a standard deviation of height of the surface of the cells which was standardized with a mean value of height of the surface of the cells, and a statistical processing was done.

For `CC1=C(/C=C/C(C)=C/C=C/C(C)=C/C(=O)O)C(C)(C)CCC1` [Retinoic acid, retinoic acid], the “Flatness (variogram, MSHD standardized with mean height) versus undifferentiated iPS cells” value ([1]; Δr 0.25 μm to 15 μm, FIG. 5) was “higher than the flatness of the undifferentiated iPS cells”, the “Histogram of flatness versus ratio of the cells, all colonies as a population” value ([1]; Δr 15 μm, RA-1 to RA-3 versus Cont 1 to Cont 3, FIG. 7) was “apparent shift” and the “Cell surface shape observed by reflection quantitative phase microscope” value [2] was “not flat”.
